Results as given in PMC11463774, “Structure of the Nmd4-Upf1 complex supports conservation of the nonsense-mediated mRNA decay pathway between yeast and humans” (PLOS Biology, 2024).
Substitutions are numbered along the chain they refer to. Names and notes keep the numbering of the source. Results are given in words; binding and its absence hold for the method and conditions named. For part of these data: In cells and extracts the contact can be indirect. Some results given as binding are weak or reduced against the parent protein; the word gives no strength. Sequences can lack the tags named with a protein. Blank lines part the entries; values can stand above or below the binder they belong to.

What was measured:
[1] = molecular target: T1, Upf1-FL-TAP (S. cerevisiae) (S. cerevisiae) (UniProt P30771); experiment: co-IP; TAP-tagged Upf1 purified from S. cerevisiae lysate on IgG-magnetic beads, 1 h at 4°C; Nmd4-HA detected by anti-HA immunoblot
T1 sequence: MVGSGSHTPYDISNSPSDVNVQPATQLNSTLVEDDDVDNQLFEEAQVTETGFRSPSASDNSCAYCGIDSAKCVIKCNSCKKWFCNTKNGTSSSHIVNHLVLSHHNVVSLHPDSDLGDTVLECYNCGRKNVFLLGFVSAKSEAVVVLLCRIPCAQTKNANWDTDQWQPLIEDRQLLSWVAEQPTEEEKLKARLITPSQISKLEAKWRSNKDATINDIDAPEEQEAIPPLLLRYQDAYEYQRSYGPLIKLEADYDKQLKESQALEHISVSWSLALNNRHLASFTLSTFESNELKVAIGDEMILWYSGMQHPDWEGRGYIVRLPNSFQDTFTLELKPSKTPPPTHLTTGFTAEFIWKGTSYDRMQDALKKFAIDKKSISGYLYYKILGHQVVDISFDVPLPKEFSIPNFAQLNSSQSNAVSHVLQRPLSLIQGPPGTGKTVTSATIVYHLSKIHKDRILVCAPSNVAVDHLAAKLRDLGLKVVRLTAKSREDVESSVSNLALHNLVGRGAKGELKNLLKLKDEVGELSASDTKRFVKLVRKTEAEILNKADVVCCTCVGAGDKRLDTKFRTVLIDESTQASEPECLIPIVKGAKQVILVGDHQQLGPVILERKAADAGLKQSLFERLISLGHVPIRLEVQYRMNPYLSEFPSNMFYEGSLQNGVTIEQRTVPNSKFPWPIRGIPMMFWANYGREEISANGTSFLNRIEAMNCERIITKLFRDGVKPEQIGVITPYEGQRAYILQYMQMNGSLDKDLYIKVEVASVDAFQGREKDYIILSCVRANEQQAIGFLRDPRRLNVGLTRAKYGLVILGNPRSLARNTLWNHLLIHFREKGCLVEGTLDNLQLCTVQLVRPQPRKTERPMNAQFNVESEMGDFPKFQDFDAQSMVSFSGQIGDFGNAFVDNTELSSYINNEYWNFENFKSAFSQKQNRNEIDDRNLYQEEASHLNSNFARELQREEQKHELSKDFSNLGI

[2] = molecular target: T2, TAP-Upf1-FL (S. cerevisiae, N-terminal TAP tag, from plasmid) (S. cerevisiae) (UniProt P30771); experiment: as above
T2 sequence: T1 sequence

[3] = molecular target: T3, TAP-Upf1-FL-G243R (S. cerevisiae) (UniProt P30771); experiment: as above
T3 sequence: T1 sequence with G243R

[4] = molecular target: T4, TAP-Upf1-FL-G377R (S. cerevisiae) (UniProt P30771); experiment: as above
T4 sequence: T1 sequence with G377R

[5] = molecular target: T5, His6-ZZ-Nmd4 PIN domain (residues 1 to 167) (S. cerevisiae) (UniProt Q12129); experiment: pull-down; His-pull-down: 0.5 nmol His6-ZZ-Nmd4 proteins with 0.5 nmol untagged Upf1-HD proteins, HisPur Ni-NTA magnetic beads; 20 mM Tris-HCl pH 7.5, 150 mM NaCl, 50 mM imidazole, 10% glycerol; 4°C; Coomassie; both purified
T5 sequence: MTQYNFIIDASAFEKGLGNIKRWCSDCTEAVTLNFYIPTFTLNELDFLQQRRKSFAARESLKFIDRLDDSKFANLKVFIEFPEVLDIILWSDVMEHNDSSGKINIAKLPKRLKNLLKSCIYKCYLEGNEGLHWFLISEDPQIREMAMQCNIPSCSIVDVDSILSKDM

[6] = molecular target: T6, CBP-His6-ZZ-Nmd4 (S. cerevisiae) (S. cerevisiae) (UniProt Q12129); experiment: pull-down; CBP pull-down: 0.5 nmol CBP-His6-ZZ or CBP-His6-ZZ-Nmd4 with 0.5 nmol untagged Upf1-HD proteins, Calmodulin Sepharose 4B beads; 20 mM Hepes-NaOH pH 7.5, 125 mM NaCl, 2 mM CaCl2, 0.1% NP-40, 10% glycerol; Coomassie; both purified
T6 sequence: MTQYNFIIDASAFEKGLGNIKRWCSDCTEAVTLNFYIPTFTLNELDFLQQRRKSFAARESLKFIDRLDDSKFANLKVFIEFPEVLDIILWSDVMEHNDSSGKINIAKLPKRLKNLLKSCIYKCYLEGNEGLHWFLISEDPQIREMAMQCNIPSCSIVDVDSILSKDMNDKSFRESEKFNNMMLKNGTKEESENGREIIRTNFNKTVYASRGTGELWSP

binding [1]: no binding
B1: Nmd4-PIN-HA (Nmd4-[1–168], genomic C-terminal 3HA tag) (domain or fragment, UniProt Q12129 1-168)
chain: MTQYNFIIDASAFEKGLGNIKRWCSDCTEAVTLNFYIPTFTLNELDFLQQRRKSFAARESLKFIDRLDDSKFANLKVFIEFPEVLDIILWSDVMEHNDSSGKINIAKLPKRLKNLLKSCIYKCYLEGNEGLHWFLISEDPQIREMAMQCNIPSCSIVDVDSILSKDMN

binding [2]: binds | binding [3]: binds weakly | binding [4]: binds weakly | binding [1]: binds
B2: His6-ZZ-Nmd4 full-length protein (S. cerevisiae) (natural protein, UniProt Q12129 1-218, looked up)
chain: T6 sequence
notes: also called His6-ZZ-Nmd4 FL; full-length Nmd4; source: E. coli BL21 (DE3) Gold, purified (Ni-NTA, HiTrap Heparin, S75 SEC); not shown: His6, N-terminal, kept; ZZ (tandem Z-domain of S. aureus protein A), N-terminal, kept

B3: untagged Upf1-HD wild-type (S. cerevisiae Upf1 residues 221 to 851) (domain or fragment, UniProt P30771 221-851)
chain: EQEAIPPLLLRYQDAYEYQRSYGPLIKLEADYDKQLKESQALEHISVSWSLALNNRHLASFTLSTFESNELKVAIGDEMILWYSGMQHPDWEGRGYIVRLPNSFQDTFTLELKPSKTPPPTHLTTGFTAEFIWKGTSYDRMQDALKKFAIDKKSISGYLYYKILGHQVVDISFDVPLPKEFSIPNFAQLNSSQSNAVSHVLQRPLSLIQGPPGTGKTVTSATIVYHLSKIHKDRILVCAPSNVAVDHLAAKLRDLGLKVVRLTAKSREDVESSVSNLALHNLVGRGAKGELKNLLKLKDEVGELSASDTKRFVKLVRKTEAEILNKADVVCCTCVGAGDKRLDTKFRTVLIDESTQASEPECLIPIVKGAKQVILVGDHQQLGPVILERKAADAGLKQSLFERLISLGHVPIRLEVQYRMNPYLSEFPSNMFYEGSLQNGVTIEQRTVPNSKFPWPIRGIPMMFWANYGREEISANGTSFLNRIEAMNCERIITKLFRDGVKPEQIGVITPYEGQRAYILQYMQMNGSLDKDLYIKVEVASVDAFQGREKDYIILSCVRANEQQAIGFLRDPRRLNVGLTRAKYGLVILGNPRSLARNTLWNHLLIHFREKGCLVEGTLDNLQLCTVQLVR
binding [5]: no binding (tested: 0.5 nmol of each protein in 60 μL)

B4: untagged Upf1-HD double mutant G243R/G377R (domain or fragment, UniProt P30771 221-851)
chain: B3 chain with G23R, G157R
binding [6]: no binding (tested: 0.5 nmol of each protein in 60 μL)

B5: untagged Upf1-HD G243R (domain or fragment, UniProt P30771 221-851)
chain: B3 chain with G23R
binding [6]: no binding (tested: 0.5 nmol of each protein in 60 μL)

B6: untagged Upf1-HD G377R (domain or fragment, UniProt P30771 221-851)
chain: B3 chain with G157R
binding [6]: no binding (tested: 0.5 nmol of each protein in 60 μL)
